Paper PMC10564934
Results are given in words; binding and its absence hold for the method and conditions named. Binding seen in cells or lysates may run through a third protein. Some results given as binding are weak or reduced against the parent protein; the word gives no strength. For some assays here: Tags and fused reporters may be left off the sequences shown. Values belong to the molecule of their own block, whether it stands above or below them.

By UniProt entry, the sequences of proteins in these tests, tags left out.
UniProt Q86TM6: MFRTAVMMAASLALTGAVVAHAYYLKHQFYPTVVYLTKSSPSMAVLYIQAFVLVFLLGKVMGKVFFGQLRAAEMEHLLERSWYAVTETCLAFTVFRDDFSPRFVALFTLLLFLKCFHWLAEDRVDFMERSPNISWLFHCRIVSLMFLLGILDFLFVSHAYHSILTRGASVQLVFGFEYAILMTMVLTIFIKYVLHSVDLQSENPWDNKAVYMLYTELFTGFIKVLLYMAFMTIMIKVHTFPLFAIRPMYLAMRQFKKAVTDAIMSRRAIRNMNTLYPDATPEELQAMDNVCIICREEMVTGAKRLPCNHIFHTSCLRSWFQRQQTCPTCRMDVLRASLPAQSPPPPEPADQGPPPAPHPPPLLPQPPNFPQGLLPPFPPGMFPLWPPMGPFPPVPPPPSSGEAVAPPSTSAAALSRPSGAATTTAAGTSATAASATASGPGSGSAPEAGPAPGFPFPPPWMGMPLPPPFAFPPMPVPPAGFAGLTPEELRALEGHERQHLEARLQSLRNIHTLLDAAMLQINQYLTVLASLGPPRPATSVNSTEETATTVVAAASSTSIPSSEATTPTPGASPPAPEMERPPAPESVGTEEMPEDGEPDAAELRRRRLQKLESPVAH

What was measured:
[1] = biological target: T1, Flag-tagged MCT4 (monocarboxylate transporter 4), full length (UniProt O15427); assay: co-IP; HEK293T cotransfected with Flag-MCT4 (or its deletion mutants) and HA-SYVN1, 48 h; nondenaturing IP in native lysis buffer with anti-Flag or anti-HA antibody, immunoblot
T1 sequence: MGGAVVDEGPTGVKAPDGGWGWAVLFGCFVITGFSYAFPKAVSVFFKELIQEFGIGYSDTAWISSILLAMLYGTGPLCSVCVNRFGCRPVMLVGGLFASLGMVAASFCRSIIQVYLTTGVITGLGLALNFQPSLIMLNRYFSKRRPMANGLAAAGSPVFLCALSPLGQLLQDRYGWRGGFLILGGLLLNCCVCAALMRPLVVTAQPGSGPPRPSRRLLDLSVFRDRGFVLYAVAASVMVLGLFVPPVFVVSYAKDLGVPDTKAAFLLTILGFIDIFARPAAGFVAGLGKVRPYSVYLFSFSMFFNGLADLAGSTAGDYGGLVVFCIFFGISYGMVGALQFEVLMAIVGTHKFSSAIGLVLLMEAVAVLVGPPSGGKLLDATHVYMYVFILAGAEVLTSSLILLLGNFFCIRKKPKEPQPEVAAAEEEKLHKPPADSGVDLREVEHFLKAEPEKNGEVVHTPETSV

[2] = biological target: T1, Flag-tagged MCT4 (monocarboxylate transporter 4), full length; assay: proximity ligation; PLA in HEK293T cells cotransfected with HA-SYVN1 and Flag-MCT4 or its deletion mutants; signals quantified with ImageJ
[3] = biological target: T2, MCT4 (monocarboxylate transporter 4), endogenous (human (endogenous in A549 and H1752)) (UniProt O15427); assay: co-IP; immunoprecipitation of endogenous proteins in A549 cells
T2 sequence: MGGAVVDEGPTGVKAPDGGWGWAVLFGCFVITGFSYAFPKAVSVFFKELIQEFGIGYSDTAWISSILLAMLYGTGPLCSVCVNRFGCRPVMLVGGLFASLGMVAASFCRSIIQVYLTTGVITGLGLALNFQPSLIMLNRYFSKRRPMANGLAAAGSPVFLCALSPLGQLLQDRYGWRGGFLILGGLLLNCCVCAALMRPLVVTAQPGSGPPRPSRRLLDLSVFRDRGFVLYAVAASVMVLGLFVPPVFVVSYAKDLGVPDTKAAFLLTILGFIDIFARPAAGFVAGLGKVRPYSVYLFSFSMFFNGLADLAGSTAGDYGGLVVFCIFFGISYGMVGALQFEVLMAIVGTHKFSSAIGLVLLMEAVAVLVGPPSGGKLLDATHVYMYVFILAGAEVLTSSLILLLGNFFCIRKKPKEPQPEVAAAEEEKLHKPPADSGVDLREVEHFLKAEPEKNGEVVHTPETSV

[4] = biological target: T2, MCT4 (monocarboxylate transporter 4), endogenous (human (endogenous in A549 and H1752)); assay: proximity ligation; Duolink in situ PLA in fixed A549/H1752 cells with anti-MCT4 and anti-SYVN1 antibodies
[5] = biological target: HA-tagged SYVN1 (Synoviolin 1) (UniProt Q86TM6); assay: co-IP; HEK293T cotransfected with Flag-MCT4 (or its deletion mutants) and HA-SYVN1, 48 h; nondenaturing IP in native lysis buffer with anti-Flag or anti-HA antibody, immunoblot

binding [1]: binds | binding [2]: binds
Molecule: HA-tagged SYVN1 (Synoviolin 1) (from UniProt Q86TM6 1-617) (enzyme)

binding [3]: binds | binding [4]: binds
Molecule: SYVN1 (Synoviolin 1), endogenous (from UniProt Q86TM6 1-617) (enzyme)

binding [5]: binds
B1: Flag-tagged MCT4 (monocarboxylate transporter 4), full length (protein, UniProt O15427 1-465)
chain: MGGAVVDEGPTGVKAPDGGWGWAVLFGCFVITGFSYAFPKAVSVFFKELIQEFGIGYSDTAWISSILLAMLYGTGPLCSVCVNRFGCRPVMLVGGLFASLGMVAASFCRSIIQVYLTTGVITGLGLALNFQPSLIMLNRYFSKRRPMANGLAAAGSPVFLCALSPLGQLLQDRYGWRGGFLILGGLLLNCCVCAALMRPLVVTAQPGSGPPRPSRRLLDLSVFRDRGFVLYAVAASVMVLGLFVPPVFVVSYAKDLGVPDTKAAFLLTILGFIDIFARPAAGFVAGLGKVRPYSVYLFSFSMFFNGLADLAGSTAGDYGGLVVFCIFFGISYGMVGALQFEVLMAIVGTHKFSSAIGLVLLMEAVAVLVGPPSGGKLLDATHVYMYVFILAGAEVLTSSLILLLGNFFCIRKKPKEPQPEVAAAEEEKLHKPPADSGVDLREVEHFLKAEPEKNGEVVHTPETSV
